Laboratory results as given in article PMC4812327.
These are yes or no findings as the source states them, for the method shown. In cells and extracts the contact can be indirect. Some binding calls cover weakened binding; strength is not graded here. For part of these data: Sequences can lack the tags named with a protein.

How the values were obtained:
[1] = molecular target: T1, Myc-tagged Mgr (Drosophila) (UniProt Q9VGP6); assay: co-IP; S2 cells co-expressing Flag- and Myc-tagged proteins, harvested 48 h after transfection; lysate immunoprecipitated with mouse anti-Flag or anti-Myc overnight at 4 °C, Protein A/G beads, western blot
T1 sequence: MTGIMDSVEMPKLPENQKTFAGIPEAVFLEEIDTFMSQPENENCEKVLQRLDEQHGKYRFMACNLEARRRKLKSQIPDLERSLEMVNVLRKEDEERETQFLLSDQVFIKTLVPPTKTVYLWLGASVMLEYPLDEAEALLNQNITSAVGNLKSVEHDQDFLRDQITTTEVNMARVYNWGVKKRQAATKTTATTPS

[2] = molecular target: T2, Flag-tagged Pfdn2 (Drosophila) (UniProt Q9VTE5); assay: as above
T2 sequence: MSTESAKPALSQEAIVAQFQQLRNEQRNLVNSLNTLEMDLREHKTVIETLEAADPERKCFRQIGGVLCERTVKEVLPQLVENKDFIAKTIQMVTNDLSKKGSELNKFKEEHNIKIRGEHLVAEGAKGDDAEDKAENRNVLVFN

[3] = molecular target: T3, Mgr (Drosophila) (UniProt Q9VGP6); assay: co-IP; co-immunoprecipitation assays of Fig. S10; source of proteins and antibodies not told in the text shown
T3 sequence: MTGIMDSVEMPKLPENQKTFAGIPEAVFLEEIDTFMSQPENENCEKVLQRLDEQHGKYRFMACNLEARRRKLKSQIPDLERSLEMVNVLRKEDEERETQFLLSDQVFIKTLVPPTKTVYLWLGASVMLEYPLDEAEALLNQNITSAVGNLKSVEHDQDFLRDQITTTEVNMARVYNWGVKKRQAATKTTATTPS

B1: Flag-tagged Pfdn2 (protein, UniProt Q9VTE5 1-143)
chain: MSTESAKPALSQEAIVAQFQQLRNEQRNLVNSLNTLEMDLREHKTVIETLEAADPERKCFRQIGGVLCERTVKEVLPQLVENKDFIAKTIQMVTNDLSKKGSELNKFKEEHNIKIRGEHLVAEGAKGDDAEDKAENRNVLVFN
In the case of B1, the binding [1] is reported as “binds”.

B2: Myc-tagged Pfdn5 (protein, UniProt Q9VCZ8 1-168)
chain: MAATPSAPAKSEMIDLTKLSPEQLIQIKQEFEQEITNVQDSLSTLHGCQAKYAGSKEALGTFQPNWENRQILVPLTSSMYVPGRVKDLNRFVIDIGTGYYIEKDLEGSKDYFKRRVEYVQEQIEKIEKIHLQKTRFYNSVMSVLEMKQAAAAKLQSQQQSQPAVTQSS
B2 was tested, and the binding [2] was “binds”.

B3: Partner of Inscuteable (Pins) (protein, UniProt Q9VB22 1-658)
chain: MSSLSASAENVSSLGLGSGGGGTTSHDGNSQQGSGSDGGSSMCLELALEGERLCKAGDCRAGVAFFQAAIQAGTEDLRTLSAIYSQLGNAYFYLGDYNKAMQYHKHDLTLAKSMNDRLGEAKSSGNLGNTLKVMGRFDEAAICCERHLTLARQLGDRLSEGRALYNLGNVYHAKGKHLGQRNPGKFGDDVKEALTRAVEFYQENLKLMRDLGDRGAQGRACGNLGNTYYLLGDFQAAIEHHQERLRIAREFGDRAAERRANSNLGNSHIFLGQFEDAAEHYKRTLALAVELGEREVEAQSCYSLGNTYTLLHEFNTAIEYHNRHLAIAQELGDRIGEARACWSLGNAHSAIGGHERALKYAEQHLQLAKELHDPVGESTARVNISDLRKLLGMPDSEPSPTEEEARSTASDHSASGNQSDGSENSQGRMVRVRRQSMEQLDLIKITPDGKRMQEEKLRAQATRKAKDDDFFEMLSRSQSKRMDDQRCSIKVNPAGAPAVATGATRKPLVQQNSLFVDPTNLPGLKSPSSANPSAIGHGPLARSATTTQQPDDDFLDMLMRCQGSRLEEQRSELPRPNVTMDAEAEAPPRSVPEAAVPGAPRGQTGRGATVPDEDFFSLIMKVQSGRMEDQRASIPFRNANNNNNSRSNNNGSAGGAGK
With B3 the binding [3] was “no binding”.
